# Values of other authors as cited in article PMC11263240 (Pharmaceutical Research, 2024).
# Tests used:
# [1] = cited from earlier work
# [2] = ciprofloxacin 7 mg/kg intravenous, tariquidar 15 mg/kg, male Wistar rats; cited from earlier work
smiles,measurement,setting,value
O=C(O)c1cn(C2CC2)c2cc(N3CCNCC3)c(F)cc2c1=O [ciprofloxacin],effect of tariquidar on plasma pharmacokinetics,[1],no effect
same,plasma AUC0-∞ with tariquidar co-administration,[2],significantly higher
